Patent publication US20120156704A1, “IN VITRO METHOD FOR DETECTING GP91PHOX AS A MARKER OF OXIDATIVE STRESS” (BIOS INTERNATIONAL S.R.L., priority 2009, published 2012)

Test system: hypercholesterolemic patients
Conditions: group B, diet + atorvastatin 10 mg/day, end of 30 days; from 211±68 at baseline, p=0.035

CC(C)c1c(C(=O)Nc2ccccc2)c(-c2ccccc2)c(-c2ccc(F)cc2)n1CC[C@@H](O)C[C@@H](O)CC(=O)O [atorvastatin]
sgp91phox (serum, western blot densitometry): 154±43 A.U.
